No constants are given. Whether binding was seen depends on the method and setting. In cells and extracts the contact can be indirect. Some results given as binding are weak or reduced against the parent protein; the word gives no strength.
B1: Gasdermin D (GSDMD), intact (protein, UniProt P57764 1-484)
chain: MGSAFERVVRRVVQELDHGGEFIPVTSLQSSTGFQPYCLVVRKPSSSWFWKPRYKCVNLSIKDILEPDAAEPDVQRGRSFHFYDAMDGQIQGSVELAAPGQAKIAGGAAVSDSSSTSMNVYSLSVDPNTWQTLLHERHLRQPEHKVLQQLRSRGDNVYVVTEVLQTQKEVEVTRTHKREGSGRFSLPGATCLQGEGQGHLSQKKTVTIPSGSTLAFRVAQLVIDSDLDVLLFPDKKQRTFQPPATGHKRSTSEGAWPQLPSGLSMMRCLHNFLTDGVPAEGAFTEDFQGLRAEVETISKELELLDRELCQLLLEGLEGVLRDQLALRALEEALEQGQSLGPVEPLDGPAGAVLECLVLSSGMLVPELAIPVVYLLGALTMLSETQHKLLAEALESQTLLGPLELVGSLLEQSAPWQERSTMSLPPGLLGNSWGEGAPAWVLLDECGLELGEDTPHVCWEPQAQGRMCALYASLALLSGLSQEPH

The chains behind the UniProt entries cited, without tags or fusion partners.
UniProt P43490: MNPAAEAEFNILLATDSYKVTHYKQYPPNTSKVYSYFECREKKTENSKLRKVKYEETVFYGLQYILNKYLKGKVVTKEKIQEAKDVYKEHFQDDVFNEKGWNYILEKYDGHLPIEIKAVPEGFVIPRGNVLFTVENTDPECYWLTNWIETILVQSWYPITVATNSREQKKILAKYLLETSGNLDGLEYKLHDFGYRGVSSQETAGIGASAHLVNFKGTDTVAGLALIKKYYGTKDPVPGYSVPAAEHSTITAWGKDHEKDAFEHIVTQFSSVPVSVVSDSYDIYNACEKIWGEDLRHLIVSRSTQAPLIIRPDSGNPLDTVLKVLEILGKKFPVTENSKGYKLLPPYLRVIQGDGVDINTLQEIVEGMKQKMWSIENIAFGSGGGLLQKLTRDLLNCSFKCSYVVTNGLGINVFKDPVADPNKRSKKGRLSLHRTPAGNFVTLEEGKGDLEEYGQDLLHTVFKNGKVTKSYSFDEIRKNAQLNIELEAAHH
UniProt P46934: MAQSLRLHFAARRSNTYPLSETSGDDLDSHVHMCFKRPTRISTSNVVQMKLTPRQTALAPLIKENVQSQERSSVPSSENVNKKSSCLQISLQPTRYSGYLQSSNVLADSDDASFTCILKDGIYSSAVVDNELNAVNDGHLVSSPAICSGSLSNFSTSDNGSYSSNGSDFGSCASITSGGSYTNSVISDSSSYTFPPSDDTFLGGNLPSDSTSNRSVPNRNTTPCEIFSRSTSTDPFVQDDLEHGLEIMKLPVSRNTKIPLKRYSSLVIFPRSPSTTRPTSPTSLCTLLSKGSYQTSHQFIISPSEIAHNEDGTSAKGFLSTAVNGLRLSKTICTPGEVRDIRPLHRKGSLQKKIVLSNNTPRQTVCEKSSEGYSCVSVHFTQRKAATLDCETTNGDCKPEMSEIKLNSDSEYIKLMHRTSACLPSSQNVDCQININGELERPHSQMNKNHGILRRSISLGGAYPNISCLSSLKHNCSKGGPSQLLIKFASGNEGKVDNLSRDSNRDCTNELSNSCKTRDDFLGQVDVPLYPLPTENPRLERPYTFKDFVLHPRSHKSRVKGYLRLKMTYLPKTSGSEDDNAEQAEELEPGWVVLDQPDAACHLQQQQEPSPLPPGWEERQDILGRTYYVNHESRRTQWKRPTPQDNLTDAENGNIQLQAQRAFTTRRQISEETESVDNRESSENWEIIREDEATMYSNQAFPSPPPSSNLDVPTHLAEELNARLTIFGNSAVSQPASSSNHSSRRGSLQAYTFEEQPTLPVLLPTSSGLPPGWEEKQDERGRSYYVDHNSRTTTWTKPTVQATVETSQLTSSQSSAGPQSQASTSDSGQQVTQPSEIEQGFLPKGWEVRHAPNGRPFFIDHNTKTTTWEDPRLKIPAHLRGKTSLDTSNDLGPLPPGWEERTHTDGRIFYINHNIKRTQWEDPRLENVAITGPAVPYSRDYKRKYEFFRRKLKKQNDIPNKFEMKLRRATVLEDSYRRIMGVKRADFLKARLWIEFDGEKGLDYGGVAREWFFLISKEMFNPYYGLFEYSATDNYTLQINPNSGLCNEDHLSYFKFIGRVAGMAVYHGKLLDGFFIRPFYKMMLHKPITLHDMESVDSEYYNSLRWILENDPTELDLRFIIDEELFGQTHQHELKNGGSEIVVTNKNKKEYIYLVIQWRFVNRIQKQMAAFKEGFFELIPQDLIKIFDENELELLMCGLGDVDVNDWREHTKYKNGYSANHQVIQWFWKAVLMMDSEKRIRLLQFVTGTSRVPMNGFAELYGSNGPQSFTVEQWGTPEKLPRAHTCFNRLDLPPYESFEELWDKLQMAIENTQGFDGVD

Experiments:
[1] = molecular target: His-tagged human NAMPT (human) (UniProt P43490); assay: co-IP; HEK293T cells co-transfected for 24 h with His-NAMPT and HA-NEDD4; cleared RIPA lysates incubated with His-tag magnetic bead conjugate at 4 °C; immunoblot
[2] = molecular target: NEDD4 E3 ligase (neural precursor cell expressed developmentally downregulated 4) (human (endogenous in THP-1)) (UniProt P46934); assay: co-IP; NEDD4 antibody and protein G Dynabeads, cleared RIPA lysates of WT THP-1 cells, basal and after LPS; immunoblot for GSDMD and Hsp90

| Molecule | binding [1] | binding [2] |
| --- | --- | --- |
| HA-tagged human NEDD4 (from UniProt P46934 1-1319) (enzyme) | binds |  |
| B1 |  | binds |
